Results reported in paper PMC9418443.

Chains of the proteins cited; added tags and fusions are not shown. Lines headed by an entry give the natural chain unless they say otherwise; changes in a name come on top. Residues count along the entry.
UniProt P25822: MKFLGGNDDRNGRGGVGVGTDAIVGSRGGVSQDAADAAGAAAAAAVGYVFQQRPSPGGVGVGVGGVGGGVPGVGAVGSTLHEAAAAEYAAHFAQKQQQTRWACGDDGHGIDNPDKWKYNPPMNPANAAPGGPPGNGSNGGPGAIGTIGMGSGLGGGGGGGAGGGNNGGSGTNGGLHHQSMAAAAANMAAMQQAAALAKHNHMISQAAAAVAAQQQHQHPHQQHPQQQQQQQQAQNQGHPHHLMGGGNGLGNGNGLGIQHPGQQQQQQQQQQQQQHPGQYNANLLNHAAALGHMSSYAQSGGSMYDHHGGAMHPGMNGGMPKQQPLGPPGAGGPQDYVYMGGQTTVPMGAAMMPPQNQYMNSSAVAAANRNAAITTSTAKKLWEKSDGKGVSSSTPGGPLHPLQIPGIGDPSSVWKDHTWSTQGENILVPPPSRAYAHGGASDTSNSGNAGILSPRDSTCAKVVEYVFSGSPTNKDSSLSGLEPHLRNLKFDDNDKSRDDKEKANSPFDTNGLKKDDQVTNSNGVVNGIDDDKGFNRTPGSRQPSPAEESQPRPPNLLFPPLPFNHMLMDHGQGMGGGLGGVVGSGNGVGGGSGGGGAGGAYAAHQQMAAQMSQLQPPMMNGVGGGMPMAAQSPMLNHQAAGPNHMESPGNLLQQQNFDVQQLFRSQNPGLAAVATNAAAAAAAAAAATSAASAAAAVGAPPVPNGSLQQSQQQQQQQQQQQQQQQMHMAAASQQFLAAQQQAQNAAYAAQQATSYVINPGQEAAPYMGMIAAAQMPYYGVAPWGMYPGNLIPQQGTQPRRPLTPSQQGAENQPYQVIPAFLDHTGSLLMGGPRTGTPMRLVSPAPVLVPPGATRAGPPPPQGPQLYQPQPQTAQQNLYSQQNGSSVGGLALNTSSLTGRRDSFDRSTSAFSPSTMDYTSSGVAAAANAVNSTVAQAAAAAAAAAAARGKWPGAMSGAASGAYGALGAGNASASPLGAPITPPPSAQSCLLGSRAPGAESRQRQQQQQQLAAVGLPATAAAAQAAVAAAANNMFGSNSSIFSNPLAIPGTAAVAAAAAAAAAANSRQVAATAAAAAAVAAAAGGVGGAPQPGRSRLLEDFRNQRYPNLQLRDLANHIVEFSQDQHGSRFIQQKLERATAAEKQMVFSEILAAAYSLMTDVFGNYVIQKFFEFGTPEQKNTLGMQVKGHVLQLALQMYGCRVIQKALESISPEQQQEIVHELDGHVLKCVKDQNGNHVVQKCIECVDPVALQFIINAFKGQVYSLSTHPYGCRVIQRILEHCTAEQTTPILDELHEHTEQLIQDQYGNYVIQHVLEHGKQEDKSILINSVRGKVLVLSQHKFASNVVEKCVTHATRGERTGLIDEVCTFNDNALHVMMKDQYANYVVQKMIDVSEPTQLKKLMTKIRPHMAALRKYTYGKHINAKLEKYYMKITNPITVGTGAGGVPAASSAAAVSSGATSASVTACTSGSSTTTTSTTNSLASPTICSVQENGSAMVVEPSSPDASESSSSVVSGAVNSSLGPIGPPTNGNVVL
UniProt Q7K126, residues 522-844: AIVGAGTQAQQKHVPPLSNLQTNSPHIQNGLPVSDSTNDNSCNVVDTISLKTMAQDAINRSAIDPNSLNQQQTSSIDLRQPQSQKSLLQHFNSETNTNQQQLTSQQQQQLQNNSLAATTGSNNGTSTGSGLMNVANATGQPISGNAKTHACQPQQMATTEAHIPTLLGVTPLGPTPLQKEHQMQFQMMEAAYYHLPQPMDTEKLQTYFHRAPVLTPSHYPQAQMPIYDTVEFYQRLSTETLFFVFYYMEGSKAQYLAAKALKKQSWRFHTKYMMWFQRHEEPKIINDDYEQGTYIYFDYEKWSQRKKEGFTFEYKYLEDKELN

Columns and labels:
Test in all cases: two-hybrid; yeast two-hybrid in S. cerevisiae Y2H Gold; baits on Gal4 DNA-binding domain (pGBKT7), preys on Gal4 activation domain (pGADT7); growth on -Leu -Trp -His -Ade plates with X-alpha-gal (ADE2, HIS3, MEL1 reporters), 30 °C
[1] = target: Pumilio RD3 with deletion of CR4, fused to the Gal4 DNA-binding domain (bait) (Drosophila melanogaster) (UniProt P25822)
[2] = target: Pumilio RD3 with deletion of CR1, fused to the Gal4 DNA-binding domain (bait) (Drosophila melanogaster) (UniProt P25822)
[3] = target: Pumilio RD3 with deletion of CR3, fused to the Gal4 DNA-binding domain (bait) (Drosophila melanogaster) (UniProt P25822)
[4] = target: Pumilio RD3 with deletion of the P/Q region, fused to the Gal4 DNA-binding domain (bait) (Drosophila melanogaster) (UniProt P25822)
[5] = target: Pumilio RD3 with deletion of CR2, fused to the Gal4 DNA-binding domain (bait) (Drosophila melanogaster) (UniProt P25822)

Measured: binding

Not3-C, C-terminal region of Drosophila Not3 (amino acids 522–844), fused to the Gal4 activation domain (prey) (from UniProt Q7K126 522-844) (domain or fragment)
binds: [1] | [2]

B1: Not2 subunit of the Drosophila CCR4–NOT complex, fused to the Gal4 activation domain (prey) (protein, UniProt Q94547 1-585)
chain: MANLNFQQPPRSIANAALAGRTTGGFGGSSLAGHVTPTSGMFQTDFANSYPGTANYGQAPQQQQQQQQQPQLSPNRNAQLSVGGPAISSGNRNANLFGQRQFVERRAMQGLGSGPMSNMGNFMQTGRGGYGTGGGGGGPLNNFHVFGGGGGSDTSTPALLDPTEFPSLTNARGQNDQTLPQSNPLQPPGSKPYGNFFTSFGMVKQPTSEQSEFTMSNEDFPALPGTQNSDGTTNAVGSVAGTGGSGGASTENHLDGTEKPMNSIVVSGSASGSSGSNVGVVGGNGLGAVGSGIGGLAVGGGGGAGSSGGGGVGGNAASGVVGGSHVGLVGSNSGIGGVNSVPNSNAMMGVGGGLGSGSGSSGSGAGGEHLNDNSSNDKLVKSGVQTSPDGKVTNIPATMVNNQFGMVGLLTFIRAAETDPNLVTLSLGTDLTGLGLNLNSQESLHTTFAGPFVAQPCRAQDVEFNVPPEYLINFAIRDKLTAPVLKKLQEDLLFFLFYTNIGDMMQLMAAAELHSREWRYHVEEKIWITRIPGIDQYEKNGTKERGTFYYFDAQSWKRLSKVFQIDPEKLDKCPNISAFMNGQSV
binds: all assays above

Results are given in words; binding and its absence hold for the method and conditions named. Binding can be weak; no strength is given. Sequences can lack the tags named with a protein.
